The target in the assay is human insulin receptor on human IM-9 cells (human) (UniProt P06213). Kind of assay: flow cytometry competition with biotinylated RHI on IM-9 cells at 4 C. (Flow cytometry measures light scatter and fluorescence of single cells or particles in a stream.)

By UniProt entry, the sequences of proteins in these tests, tags left out. Residues count along the entry.
UniProt P06213, residues 28-1382: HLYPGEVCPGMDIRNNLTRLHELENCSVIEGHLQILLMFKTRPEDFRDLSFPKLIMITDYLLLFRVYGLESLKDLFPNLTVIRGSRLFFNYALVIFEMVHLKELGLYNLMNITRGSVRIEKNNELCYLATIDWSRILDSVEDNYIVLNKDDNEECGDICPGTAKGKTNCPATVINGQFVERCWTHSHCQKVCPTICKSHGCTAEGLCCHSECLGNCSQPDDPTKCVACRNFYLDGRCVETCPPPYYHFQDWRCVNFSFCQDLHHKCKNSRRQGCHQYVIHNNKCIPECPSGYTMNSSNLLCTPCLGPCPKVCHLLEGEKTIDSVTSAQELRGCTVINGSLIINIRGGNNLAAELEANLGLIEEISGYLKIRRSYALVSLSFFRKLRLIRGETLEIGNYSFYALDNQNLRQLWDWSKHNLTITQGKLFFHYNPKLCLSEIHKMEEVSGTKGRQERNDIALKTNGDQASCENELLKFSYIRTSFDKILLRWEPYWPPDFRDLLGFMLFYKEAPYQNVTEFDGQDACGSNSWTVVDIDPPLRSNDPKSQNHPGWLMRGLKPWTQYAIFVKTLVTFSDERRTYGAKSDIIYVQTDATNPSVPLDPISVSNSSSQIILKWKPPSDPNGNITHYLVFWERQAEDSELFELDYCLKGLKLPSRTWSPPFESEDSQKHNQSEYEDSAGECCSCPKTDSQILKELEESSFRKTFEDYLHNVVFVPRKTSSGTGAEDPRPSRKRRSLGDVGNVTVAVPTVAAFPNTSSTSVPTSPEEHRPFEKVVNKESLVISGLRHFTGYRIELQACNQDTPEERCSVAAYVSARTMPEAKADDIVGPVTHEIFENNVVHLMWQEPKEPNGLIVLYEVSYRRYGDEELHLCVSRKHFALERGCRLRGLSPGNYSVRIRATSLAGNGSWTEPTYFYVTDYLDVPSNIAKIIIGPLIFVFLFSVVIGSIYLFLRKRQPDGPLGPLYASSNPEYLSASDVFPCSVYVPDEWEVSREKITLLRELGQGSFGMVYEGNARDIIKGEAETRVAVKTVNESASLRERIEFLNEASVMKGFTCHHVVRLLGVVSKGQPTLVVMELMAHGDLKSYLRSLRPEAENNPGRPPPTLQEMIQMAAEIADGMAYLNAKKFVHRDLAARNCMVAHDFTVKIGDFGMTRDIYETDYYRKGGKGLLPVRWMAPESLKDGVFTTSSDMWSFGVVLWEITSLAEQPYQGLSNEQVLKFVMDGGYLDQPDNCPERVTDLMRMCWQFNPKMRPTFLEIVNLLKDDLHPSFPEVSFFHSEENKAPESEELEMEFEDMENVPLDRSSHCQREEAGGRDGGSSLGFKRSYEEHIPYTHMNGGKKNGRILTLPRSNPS

No constants are given. Whether binding was seen depends on the method and setting. Some binding calls cover weakened binding; strength is not graded here. Tags and fused reporters may be left off the sequences shown.

B1: insulin-Fc fusion protein of SEQ ID NO: 29 (SEQ ID NO: 24 with des hinge D and the mutation cNg-NB138-K; canine IgGB Fc fragment SEQ ID NO: 15) (Fc fusion)
chain: FVNQHLCGSDLVEALALVCGERGFFYTDPTGGGPRRGIVEQCCHSICSLYQLENYCNGGGGAGGGGCPKCPAPEMLGGPSVFIFPPKPKDTLLIARTPEVTCVVVDLDPEDPEVQISWFVDGKQMQTAKTQPREEQFKGTYRVVSVLPIGHQDWLKGKQFTCKVNNKALPSPIERTISKARGQAHQPSVYVLPPSREELSKNTVSLTCLIKDFFPPDIDVEWQSNGQQEPESKYRTTPPQLDEDGSYFLYSKLSVDKSRWQRGDTFICAVMHEALHNHYTQESLSHSPG
notes: Made in HEK293 cells; Non-glycosylated homodimer, 98.1% homodimer; also called cNg-K
As for B1, the binding entry is “binds”.

B2: insulin-Fc fusion protein of SEQ ID NO: 27 (SEQ ID NO: 24 with the mutation cNg-NB139-S; canine IgGB Fc fragment SEQ ID NO: 14) (Fc fusion)
chain: FVNQHLCGSDLVEALALVCGERGFFYTDPTGGGPRRGIVEQCCHSICSLYQLENYCNGGGGAGGGGDCPKCPAPEMLGGPSVFIFPPKPKDTLLIARTPEVTCVVVDLDPEDPEVQISWFVDGKQMQTAKTQPREEQFSGTYRVVSVLPIGHQDWLKGKQFTCKVNNKALPSPIERTISKARGQAHQPSVYVLPPSREELSKNTVSLTCLIKDFFPPDIDVEWQSNGQQEPESKYRTTPPQLDEDGSYFLYSKLSVDKSRWQRGDTFICAVMHEALHNHYTQESLSHSPG
notes: Made in HEK293 cells; Non-glycosylated homodimer, 98.3% homodimer; also called cNg-S
As for B2, the binding entry is “binds”.

The values above are taken from patent US20220098266A1 (AKSTON BIOSCIENCES, published 2022).
